# Measurements taken from PMC5484543.
# No constants are given. Whether binding was seen depends on the method and setting. Binding seen in cells or lysates may run through a third protein. These calls come from enrichment with a bait or labelling near it, and not all partners need be listed. Sequences can lack the tags named with a protein.
# T1: 3xFLAG-B12 (UniProt Q9NXW2)
# T1 sequence: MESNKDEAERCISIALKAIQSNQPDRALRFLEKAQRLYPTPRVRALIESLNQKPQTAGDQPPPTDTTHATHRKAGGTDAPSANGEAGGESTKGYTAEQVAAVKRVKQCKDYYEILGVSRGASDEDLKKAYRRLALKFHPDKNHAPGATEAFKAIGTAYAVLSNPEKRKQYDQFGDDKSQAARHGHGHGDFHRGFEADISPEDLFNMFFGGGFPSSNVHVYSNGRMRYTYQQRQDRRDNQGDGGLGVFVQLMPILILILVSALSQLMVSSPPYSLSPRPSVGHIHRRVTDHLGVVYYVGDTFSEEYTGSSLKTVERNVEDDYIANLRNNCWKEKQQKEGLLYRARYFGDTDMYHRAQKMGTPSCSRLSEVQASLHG
# T2: 3xFLAG-B12, Q9NXW2
# T2 chain: T1 sequence
# B1: DDOST (protein, UniProt P39656 43-456)
# chain: SGPRTLVLLDNLNVRETHSLFFRSLKDRGFELTFKTADDPSLSLIKYGEFLYDNLIIFSPSVEDFGGNINVETISAFIDGGGSVLVAASSDIGDPLRELGSECGIEFDEEKTAVIDHHNYDISDLGQHTLIVADTENLLKAPTIVGKSSLNPILFRGVGMVADPDNPLVLDILTGSSTSYSFFPDKPITQYPHAVGKNTLLIAGLQARNNARVIFSGSLDFFSDSFFNSAVQKAAPGSQRYSQTGNYELAVALSRWVFKEEGVLRVGPVSHHRVGETAPPNAYTVTDLVEYSIVIQQLSNGKWVPFDGDDIQLEFVRIDPFVRTFLKKKGGKYSVQFKLPDVYGVFQFKVDYNRLGYTHLYSSTQVSVRPLQHTQYERFIPSAYPYYASAFSMMLGLFIFSIVFLHMKEKEKSD
# B2: RFX7 (protein, UniProt Q2KHR2 1-1460)
# chain: MAEEQQQPPPQQPDAHQQLPPSAPNSGVALPALVPGLPGTEASALQHKIKNSICKTVQSKVDCILQEVEKFTDLEKLYLYLQLPSGLSNGEKSDQNAMSSSRAQQMHAFSWIRNTLEEHPETSLPKQEVYDEYKSYCDNLGYHPLSAADFGKIMKNVFPNMKARRLGTRGKSKYCYSGLRKKAFVHMPTLPNLDFHKTGDGLEGAEPSGQLQNIDEEVISSACRLVCEWAQKVLSQPFDTVLELARFLVKSHYIGTKSMAALTVMAAAPAGMKGITQPSAFIPTAESNSFQPQVKTLPSPIDAKQQLQRKIQKKQQEQKLQSPLPGESAAKKSESATSNGVTNLPNGNPSILSPQPIGIVVAAVPSPIPVQRTRQLVTSPSPMSSSDGKVLPLNVQVVTQHMQSVKQAPKTPQNVPASPGGDRSARHRYPQILPKPANTSALTIRSPTTVLFTSSPIKTAVVPASHMSSLNVVKMTTISLTPSNSNTPLKHSASVSSATGTTEESRSVPQIKNGSVVSLQSPGSRSSSAGGTSAVEVKVEPETSSDEHPVQCQENSDEAKAPQTPSALLGQKSNTDGALQKPSNEGVIEIKATKVCDQRTKCKSRCNEMLPGTSTGNNQSTITLSVASQNLTFTSSSSPPNGDSINKDPKLCTKSPRKRLSSTLQETQVPPVKKPIVEQLSAATIEGQKQGSVKKDQKVPHSGKTEGSTAGAQIPSKVSVNVSSHIGANQPLNSSALVISDSALEQQTTPSSSPDIKVKLEGSVFLLDSDSKSVGSFNPNGWQQITKDSEFISASCEQQQDISVMTIPEHSDINDLEKSVWELEGMPQDTYSQQLHSQIQESSLNQIQAHSSDQLPLQSELKEFEPSVSQTNESYFPFDDELTQDSIVEELVLMEQQMSMNNSHSYGNCLGMTLQSQSVTPGAPMSSHTSSTHFYHPIHSNGTPIHTPTPTPTPTPTPTPTPTPTSEMIAGSQSLSRESPCSRLAQTTPVDSALGSSRHTPIGTPHSNCSSSVPPSPVECRNPFAFTPISSSMAYHDASIVSSSPVKPMQRPMATHPDKTKLEWMNNGYSGVGNSSVSGHGILPSYQELVEDRFRKPHAFAVPGQSYQSQSRHHDTHFGRLTPVSPVQHQGATVNNTNKQEGFAVPAPLDNKGTNSSASSNFRCRSVSPAVHRQRNLSGSTLYPVSNIPRSNVTPFGSPVTPEVHVFTNVHTDACANNIAQRSQSVPLTVMMQTAFPNALQKQANSKKITNVLLSKLDSDNDDAVRGLGMNNLPSNYTARMNLTQILEPSTVFPSANPQNMIDSSTSVYEFQTPSYLTKSNSTGQINFSPGDNQAQSEIGEQQLDFNSTVKDLLSGDSLQTNQQLVGQGASDLTNTASDFSSDIRLSSELSGSINDLNTLDPNLLFDPGRQQGQDDEATLEELKNDPLFQQICSESMNSMTSSGFEWIESKDHPTVEMLG
# B3: ESYT1 (protein, UniProt Q9BSJ8 1-1104)
# chain: MERSPGEGPSPSPMDQPSAPSDPTDQPPAAHAKPDPGSGGQPAGPGAAGEALAVLTSFGRRLLVLIPVYLAGAVGLSVGFVLFGLALYLGWRRVRDEKERSLRAARQLLDDEEQLTAKTLYMSHRELPAWVSFPDVEKAEWLNKIVAQVWPFLGQYMEKLLAETVAPAVRGSNPHLQTFTFTRVELGEKPLRIIGVKVHPGQRKEQILLDLNISYVGDVQIDVEVKKYFCKAGVKGMQLHGVLRVILEPLIGDLPFVGAVSMFFIRRPTLDINWTGMTNLLDIPGLSSLSDTMIMDSIAAFLVLPNRLLVPLVPDLQDVAQLRSPLPRGIIRIHLLAARGLSSKDKYVKGLIEGKSDPYALVRLGTQTFCSRVIDEELNPQWGETYEVMVHEVPGQEIEVEVFDKDPDKDDFLGRMKLDVGKVLQASVLDDWFPLQGGQGQVHLRLEWLSLLSDAEKLEQVLQWNWGVSSRPDPPSAAILVVYLDRAQDLPLKKGNKEPNPMVQLSIQDVTQESKAVYSTNCPVWEEAFRFFLQDPQSQELDVQVKDDSRALTLGALTLPLARLLTAPELILDQWFQLSSSGPNSRLYMKLVMRILYLDSSEICFPTVPGCPGAWDVDSENPQRGSSVDAPPRPCHTTPDSQFGTEHVLRIHVLEAQDLIAKDRFLGGLVKGKSDPYVKLKLAGRSFRSHVVREDLNPRWNEVFEVIVTSVPGQELEVEVFDKDLDKDDFLGRCKVRLTTVLNSGFLDEWLTLEDVPSGRLHLRLERLTPRPTAAELEEVLQVNSLIQTQKSAELAAALLSIYMERAEDLPLRKGTKHLSPYATLTVGDSSHKTKTISQTSAPVWDESASFLIRKPHTESLELQVRGEGTGVLGSLSLPLSELLVADQLCLDRWFTLSSGQGQVLLRAQLGILVSQHSGVEAHSHSYSHSSSSLSEEPELSGGPPHITSSAPELRQRLTHVDSPLEAPAGPLGQVKLTLWYYSEERKLVSIVHGCRSLRQNGRDPPDPYVSLLLLPDKNRGTKRRTSQKKRTLSPEFNERFEWELPLDEAQRRKLDVSVKSNSSFMSRERELLGKVQLDLAETDLSQGVARWYDLMDNKDKGSS
# B4: Sel1L, Q9UBV2 22-794 (protein)
# chain: SSDEEGSQDESLDSKTTLTSDESVKDHTTAGRVVAGQIFLDSEESELESSIQEEEDSLKSQEGESVTEDISFLESPNPENKDYEEPKKVRKPALTAIEGTAHGEPCHFPFLFLDKEYDECTSDGREDGRLWCATTYDYKADEKWGFCETEEEAAKRRQMQEAEMMYQTGMKILNGSNKKSQKREAYRYLQKAASMNHTKALERVSYALLFGDYLPQNIQAAREMFEKLTEEGSPKGQTALGFLYASGLGVNSSQAKALVYYTFGALGGNLIAHMVLGYRYWAGIGVLQSCESALTHYRLVANHVASDISLTGGSVVQRIRLPDEVENPGMNSGMLEEDLIQYYQFLAEKGDVQAQVGLGQLHLHGGRGVEQNHQRAFDYFNLAANAGNSHAMAFLGKMYSEGSDIVPQSNETALHYFKKAADMGNPVGQSGLGMAYLYGRGVQVNYDLALKYFQKAAEQGWVDGQLQLGSMYYNGIGVKRDYKQALKYFNLASQGGHILAFYNLAQMHASGTGVMRSCHTAVELFKNVCERGRWSERLMTAYNSYKDGDYNAAVIQYLLLAEQGYEVAQSNAAFILDQREASIVGENETYPRALLHWNRAASQGYTVARIKLGDYHFYGFGTDVDYETAFIHYRLASEQQHSAQAMFNLGYMHEKGLGIKQDIHLAKRFYDMAAEASPDAQVPVFLALCKLGVVYFLQYIRETNIRDMFTQLDMDQLLGPEWDLYLMTIIALLLGTVIAYRQRQHQDMPAPRPPGPRPAPPQQEGPPEQQPPQ
# B5: Erlin2 (endogenous) (protein, UniProt O94905 1-339)
# chain: MAQLGAVVAVASSFFCASLFSAVHKIEEGHIGVYYRGGALLTSTSGPGFHLMLPFITSYKSVQTTLQTDEVKNVPCGTSGGVMIYFDRIEVVNFLVPNAVYDIVKNYTADYDKALIFNKIHHELNQFCSVHTLQEVYIELFDQIDENLKLALQQDLTSMAPGLVIQAVRVTKPNIPEAIRRNYELMESEKTKLLIAAQKQKVVEKEAETERKKALIEAEKVAQVAEITYGQKVMEKETEKKISEIEDAAFLAREKAKADAECYTAMKIAEANKLKLTPEYLQLMKYKAIASNSKIYFGKDIPNMFMDSAGSVSKQFEGLADKLSFGLEDEPLETATKEN
# Assays:
# [1] = target: T1, 3xFLAG-B12; test: affinity purification with mass spectrometry; 3xFLAG-B12 stable Flp-In 293 T-REx cells; digitonin-permeabilised, pellet lysed in 50 mM Hepes pH 7.5, 150 mM NaCl, 1% deoxy Big CHAP; anti-FLAG M2 antibody and Protein G magnetic beads, 4°C; eluted with 3xFLAG peptide; shot gun mass spectrometry; parental cells as control
# [2] = target: T2, 3xFLAG-B12, Q9NXW2; test: as above; settings: remark: other sources report otherwise
Binder,binding [1],binding [2]
B1,binds,
B2,binds,
B3,binds,
B4,,binds
B5,binds,
